From the supplement of paper PMC12595434, “Development of retinoid nuclear receptor pathway antagonists through targeting aldehyde dehydrogenase 1A3” (iScience, 2025)
Some of the results follow. Single values of this set are uncertain.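 Many melting curves are irregular; where none melted, Tm was taken as 64 °C.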

Chains of the proteins cited; added tags and fusions are not shown. Lines headed by an entry give the natural chain unless they say otherwise; changes in a name come on top.
UniProt P52597: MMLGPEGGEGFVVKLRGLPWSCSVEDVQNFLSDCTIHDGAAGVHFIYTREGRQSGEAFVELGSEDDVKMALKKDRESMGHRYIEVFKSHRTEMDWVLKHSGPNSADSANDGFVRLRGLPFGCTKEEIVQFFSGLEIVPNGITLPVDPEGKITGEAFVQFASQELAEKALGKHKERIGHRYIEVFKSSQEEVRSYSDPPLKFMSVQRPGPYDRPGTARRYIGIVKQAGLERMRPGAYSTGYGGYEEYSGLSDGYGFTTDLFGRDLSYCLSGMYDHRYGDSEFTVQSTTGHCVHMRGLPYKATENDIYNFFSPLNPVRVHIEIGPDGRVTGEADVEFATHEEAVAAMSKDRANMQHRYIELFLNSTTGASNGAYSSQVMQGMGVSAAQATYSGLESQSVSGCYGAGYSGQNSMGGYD
UniProt P68363, whole entry: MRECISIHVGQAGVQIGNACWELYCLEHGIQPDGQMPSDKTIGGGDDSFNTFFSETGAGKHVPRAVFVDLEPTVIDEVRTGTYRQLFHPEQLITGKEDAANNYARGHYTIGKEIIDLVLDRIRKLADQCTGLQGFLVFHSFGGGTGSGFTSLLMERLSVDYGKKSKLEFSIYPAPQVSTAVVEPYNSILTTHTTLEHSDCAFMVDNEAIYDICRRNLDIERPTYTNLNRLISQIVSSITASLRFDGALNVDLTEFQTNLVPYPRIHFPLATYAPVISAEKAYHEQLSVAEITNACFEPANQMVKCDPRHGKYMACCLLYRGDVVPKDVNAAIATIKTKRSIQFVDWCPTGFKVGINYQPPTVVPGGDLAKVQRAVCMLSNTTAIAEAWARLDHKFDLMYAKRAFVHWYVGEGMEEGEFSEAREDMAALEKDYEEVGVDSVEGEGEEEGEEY
UniProt P58107: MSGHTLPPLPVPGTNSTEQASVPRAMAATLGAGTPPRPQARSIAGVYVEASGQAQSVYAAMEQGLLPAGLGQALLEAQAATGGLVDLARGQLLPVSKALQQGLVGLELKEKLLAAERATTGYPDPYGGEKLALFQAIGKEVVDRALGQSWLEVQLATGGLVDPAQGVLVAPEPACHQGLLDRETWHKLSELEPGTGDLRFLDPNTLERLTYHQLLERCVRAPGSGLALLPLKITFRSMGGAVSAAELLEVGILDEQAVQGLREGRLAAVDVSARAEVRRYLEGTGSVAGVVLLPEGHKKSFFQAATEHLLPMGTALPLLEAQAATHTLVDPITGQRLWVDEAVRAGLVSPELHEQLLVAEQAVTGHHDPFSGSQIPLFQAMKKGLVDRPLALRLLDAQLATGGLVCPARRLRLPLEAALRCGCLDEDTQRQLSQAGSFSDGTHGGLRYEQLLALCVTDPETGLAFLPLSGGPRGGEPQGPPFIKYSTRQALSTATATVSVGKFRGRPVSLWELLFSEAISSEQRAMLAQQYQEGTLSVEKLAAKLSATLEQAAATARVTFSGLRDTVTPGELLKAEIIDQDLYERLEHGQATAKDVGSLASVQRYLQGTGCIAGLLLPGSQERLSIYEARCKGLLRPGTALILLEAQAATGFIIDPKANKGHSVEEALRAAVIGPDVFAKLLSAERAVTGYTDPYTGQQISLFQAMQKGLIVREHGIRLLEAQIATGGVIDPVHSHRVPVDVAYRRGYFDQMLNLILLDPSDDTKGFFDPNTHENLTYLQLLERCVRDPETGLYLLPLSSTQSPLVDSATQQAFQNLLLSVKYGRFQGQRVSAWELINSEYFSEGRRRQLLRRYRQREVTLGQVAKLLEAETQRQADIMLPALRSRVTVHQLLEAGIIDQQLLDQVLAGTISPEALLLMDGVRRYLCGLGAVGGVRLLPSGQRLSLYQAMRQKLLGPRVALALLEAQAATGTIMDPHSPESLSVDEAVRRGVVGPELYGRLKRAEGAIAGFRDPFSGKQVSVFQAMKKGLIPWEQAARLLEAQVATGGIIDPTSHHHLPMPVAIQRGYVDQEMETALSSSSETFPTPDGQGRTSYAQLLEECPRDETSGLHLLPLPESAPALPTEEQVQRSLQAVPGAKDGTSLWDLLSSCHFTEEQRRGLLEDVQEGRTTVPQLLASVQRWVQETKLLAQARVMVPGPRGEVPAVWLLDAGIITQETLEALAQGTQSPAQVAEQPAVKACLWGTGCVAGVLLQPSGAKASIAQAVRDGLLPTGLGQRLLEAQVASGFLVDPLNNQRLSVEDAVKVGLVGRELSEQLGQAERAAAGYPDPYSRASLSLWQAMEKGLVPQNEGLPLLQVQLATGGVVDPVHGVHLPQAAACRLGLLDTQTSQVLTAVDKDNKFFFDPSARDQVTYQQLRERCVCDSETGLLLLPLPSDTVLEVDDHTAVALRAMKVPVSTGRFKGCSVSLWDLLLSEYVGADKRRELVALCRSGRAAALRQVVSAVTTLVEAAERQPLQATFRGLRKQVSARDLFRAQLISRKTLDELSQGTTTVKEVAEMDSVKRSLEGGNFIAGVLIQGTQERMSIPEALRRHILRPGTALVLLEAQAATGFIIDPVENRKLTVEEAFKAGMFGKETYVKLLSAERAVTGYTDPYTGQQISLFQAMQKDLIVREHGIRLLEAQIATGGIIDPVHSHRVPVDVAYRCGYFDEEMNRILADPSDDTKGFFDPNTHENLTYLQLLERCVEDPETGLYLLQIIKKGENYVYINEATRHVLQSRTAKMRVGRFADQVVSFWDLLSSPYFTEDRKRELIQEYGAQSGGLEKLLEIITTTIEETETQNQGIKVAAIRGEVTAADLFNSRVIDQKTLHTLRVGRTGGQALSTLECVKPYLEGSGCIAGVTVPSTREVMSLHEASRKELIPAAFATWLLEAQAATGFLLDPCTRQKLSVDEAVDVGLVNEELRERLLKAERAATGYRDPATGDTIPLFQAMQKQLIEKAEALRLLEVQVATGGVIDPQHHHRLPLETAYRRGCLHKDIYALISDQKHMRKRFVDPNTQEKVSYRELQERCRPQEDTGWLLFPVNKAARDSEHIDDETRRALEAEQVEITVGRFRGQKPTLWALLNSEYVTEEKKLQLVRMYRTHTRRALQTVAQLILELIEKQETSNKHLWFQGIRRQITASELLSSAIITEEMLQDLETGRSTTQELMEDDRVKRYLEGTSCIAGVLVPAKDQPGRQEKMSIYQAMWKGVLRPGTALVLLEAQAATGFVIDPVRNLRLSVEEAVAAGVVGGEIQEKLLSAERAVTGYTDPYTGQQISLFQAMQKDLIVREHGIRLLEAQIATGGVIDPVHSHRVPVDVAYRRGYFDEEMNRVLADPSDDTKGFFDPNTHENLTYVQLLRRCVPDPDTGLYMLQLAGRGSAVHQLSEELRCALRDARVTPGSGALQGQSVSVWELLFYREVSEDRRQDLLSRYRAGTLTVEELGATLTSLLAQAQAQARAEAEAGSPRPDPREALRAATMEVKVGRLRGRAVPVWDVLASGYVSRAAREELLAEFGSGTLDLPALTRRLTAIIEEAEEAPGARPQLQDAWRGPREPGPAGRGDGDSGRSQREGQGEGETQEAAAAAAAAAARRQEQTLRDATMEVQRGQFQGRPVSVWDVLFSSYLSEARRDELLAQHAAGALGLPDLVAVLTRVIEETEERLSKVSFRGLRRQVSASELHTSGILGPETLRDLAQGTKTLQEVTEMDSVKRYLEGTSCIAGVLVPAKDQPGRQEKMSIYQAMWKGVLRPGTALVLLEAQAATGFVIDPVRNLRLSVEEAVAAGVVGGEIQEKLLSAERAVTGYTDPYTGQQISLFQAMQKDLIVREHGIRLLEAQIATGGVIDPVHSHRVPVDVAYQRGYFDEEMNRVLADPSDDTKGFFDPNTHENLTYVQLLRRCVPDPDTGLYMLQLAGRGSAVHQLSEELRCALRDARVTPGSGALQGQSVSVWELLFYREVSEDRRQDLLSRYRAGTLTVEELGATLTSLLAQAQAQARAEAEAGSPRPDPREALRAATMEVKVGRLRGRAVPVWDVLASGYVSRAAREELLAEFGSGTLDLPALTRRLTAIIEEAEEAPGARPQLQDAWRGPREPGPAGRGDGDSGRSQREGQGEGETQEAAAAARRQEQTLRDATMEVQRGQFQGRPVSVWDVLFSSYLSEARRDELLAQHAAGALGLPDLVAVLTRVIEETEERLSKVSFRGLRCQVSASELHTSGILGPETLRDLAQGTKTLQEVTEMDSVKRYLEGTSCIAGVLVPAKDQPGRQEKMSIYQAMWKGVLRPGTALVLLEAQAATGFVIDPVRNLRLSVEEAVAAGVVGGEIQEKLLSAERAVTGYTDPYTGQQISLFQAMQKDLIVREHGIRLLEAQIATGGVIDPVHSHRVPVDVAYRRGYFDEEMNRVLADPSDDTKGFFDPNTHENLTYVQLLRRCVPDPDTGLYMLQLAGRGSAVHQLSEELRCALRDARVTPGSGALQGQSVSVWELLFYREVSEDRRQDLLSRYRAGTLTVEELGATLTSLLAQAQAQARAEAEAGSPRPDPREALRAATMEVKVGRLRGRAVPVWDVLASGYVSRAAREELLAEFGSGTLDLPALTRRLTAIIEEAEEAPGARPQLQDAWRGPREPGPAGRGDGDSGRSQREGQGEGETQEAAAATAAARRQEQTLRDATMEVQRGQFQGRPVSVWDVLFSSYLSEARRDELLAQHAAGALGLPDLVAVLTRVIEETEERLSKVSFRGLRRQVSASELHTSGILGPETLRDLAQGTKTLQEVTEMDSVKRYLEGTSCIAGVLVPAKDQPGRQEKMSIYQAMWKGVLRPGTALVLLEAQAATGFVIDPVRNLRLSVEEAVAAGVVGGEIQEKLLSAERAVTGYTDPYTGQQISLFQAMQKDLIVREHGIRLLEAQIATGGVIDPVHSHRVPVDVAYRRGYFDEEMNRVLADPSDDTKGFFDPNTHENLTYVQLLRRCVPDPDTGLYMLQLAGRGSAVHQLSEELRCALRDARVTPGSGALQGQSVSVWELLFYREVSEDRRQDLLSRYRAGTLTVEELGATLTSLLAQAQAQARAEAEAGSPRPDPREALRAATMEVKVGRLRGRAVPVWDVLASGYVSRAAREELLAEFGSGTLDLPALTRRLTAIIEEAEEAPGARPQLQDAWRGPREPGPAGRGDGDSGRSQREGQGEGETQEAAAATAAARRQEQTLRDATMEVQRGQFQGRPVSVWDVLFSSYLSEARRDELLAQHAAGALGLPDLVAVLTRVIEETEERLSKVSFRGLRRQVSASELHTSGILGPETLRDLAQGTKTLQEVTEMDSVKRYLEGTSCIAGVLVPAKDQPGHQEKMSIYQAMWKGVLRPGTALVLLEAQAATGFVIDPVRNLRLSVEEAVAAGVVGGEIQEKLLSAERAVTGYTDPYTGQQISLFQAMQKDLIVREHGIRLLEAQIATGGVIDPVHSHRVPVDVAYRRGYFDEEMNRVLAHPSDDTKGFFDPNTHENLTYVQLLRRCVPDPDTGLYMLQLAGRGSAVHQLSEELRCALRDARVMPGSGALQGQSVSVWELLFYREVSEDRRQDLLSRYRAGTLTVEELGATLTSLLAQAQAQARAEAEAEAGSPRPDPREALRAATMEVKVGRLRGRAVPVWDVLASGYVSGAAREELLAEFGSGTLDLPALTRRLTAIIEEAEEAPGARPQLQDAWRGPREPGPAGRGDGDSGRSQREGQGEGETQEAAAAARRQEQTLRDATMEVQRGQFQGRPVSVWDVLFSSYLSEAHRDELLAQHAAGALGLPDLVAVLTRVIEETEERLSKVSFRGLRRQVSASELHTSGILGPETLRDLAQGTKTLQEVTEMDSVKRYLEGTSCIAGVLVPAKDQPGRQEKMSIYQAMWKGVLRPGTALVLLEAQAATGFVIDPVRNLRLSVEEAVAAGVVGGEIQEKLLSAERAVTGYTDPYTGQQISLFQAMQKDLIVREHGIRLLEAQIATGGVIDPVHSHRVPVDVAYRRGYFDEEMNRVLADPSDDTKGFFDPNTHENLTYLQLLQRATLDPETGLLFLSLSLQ
UniProt P61421, whole entry: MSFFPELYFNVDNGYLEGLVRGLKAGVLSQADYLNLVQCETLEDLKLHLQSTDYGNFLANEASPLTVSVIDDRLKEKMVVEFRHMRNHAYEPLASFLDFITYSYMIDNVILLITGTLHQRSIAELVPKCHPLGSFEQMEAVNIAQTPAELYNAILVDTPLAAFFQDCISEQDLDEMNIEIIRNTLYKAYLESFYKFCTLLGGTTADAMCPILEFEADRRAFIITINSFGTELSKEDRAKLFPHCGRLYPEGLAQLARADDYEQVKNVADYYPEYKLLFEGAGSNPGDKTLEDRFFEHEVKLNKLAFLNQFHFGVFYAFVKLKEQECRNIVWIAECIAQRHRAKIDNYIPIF
UniProt P63167, whole entry: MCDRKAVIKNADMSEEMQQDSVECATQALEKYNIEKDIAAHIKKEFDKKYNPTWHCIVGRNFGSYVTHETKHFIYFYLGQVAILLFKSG
UniProt P51965: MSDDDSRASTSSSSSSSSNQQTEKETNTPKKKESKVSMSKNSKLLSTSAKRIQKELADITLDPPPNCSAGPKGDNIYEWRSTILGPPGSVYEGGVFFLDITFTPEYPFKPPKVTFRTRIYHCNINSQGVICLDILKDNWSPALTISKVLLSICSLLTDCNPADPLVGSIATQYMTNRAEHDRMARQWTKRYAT

Compound: CCc1cnccc1C(=O)Nc1cc2c(cc1F)NC(=O)CC2
Assay: melting temperature shift (DMSO Tm minus MBE1-treated Tm) in cellular thermal proteome profiling; higher = less thermal stabilization by MBE1 (negative = stabilized by MBE1)
Conditions: A375

Row | Target | melting temperature shift (MBE1 concentration: 100 nM) [°C] | melting temperature shift (MBE1 concentration: 1 uM) [°C]
1 | ARPP19 (UniProt P56211) | -2.32 | -0.275
2 | MLLT4 (UniProt P55196) | -2.7 | -2.79
3 | ADK (UniProt P55263) | -0.953 | -0.372
4 | UBE2N (UniProt P61088) | 0.302 | -0.342
5 | RPS7 (UniProt P62081) | -1.9 | -0.51
6 | ABCE1 (UniProt P61221) | -1.62 | -0.983
7 | HNRNPF (UniProt P52597) | -0.776 | -0.663
8 | UniProt P68363 | -2.11 | 1.04
9 | PSMC5 (UniProt P62195) | -0.63 | 0.79
10 | RPS8 (UniProt P62241) | -0.531 | -0.0488
11 | EPPK1 (UniProt P58107) | 0.629 | -0.409
12 | GNB2 (UniProt P62879) | -0.959 | 0.637
13 | ATP6V0D1 (UniProt P61421) | -1.23 | -2.86
14 | RPS13 (UniProt P62277) | 0.794 | -0.281
15 | CSE1L (UniProt P55060) | 0.263 | -0.14
16 | PSMD4 (UniProt P55036) | -1.37 | 0.55
17 | DYNLL1 (UniProt P63167) | 0.0672 | -0.702
18 | MVD (UniProt P53602) | -0.255 | 0.0671
19 | DSTN (UniProt P60981) | -0.825 | -0.114
20 | SLC12A2 (UniProt P55011) | -0.711 | -0.181
21 | UniProt P54922 | -0.134 | 0.456
22 | UBE2E1 (UniProt P51965) | -1.14 | 8.94
23 | WDR5 (UniProt P61964) | -3.83 | 0.461
24 | ACTR2 (UniProt P61160) | -0.727 | -0.275
25 | UBE2I (UniProt P63279) | -0.299 | -0.055

Record cards, as listed above. Values in the order: melting temperature shift (MBE1 concentration: 100 nM) [°C] | melting temperature shift (MBE1 concentration: 1 uM) [°C]
HNRNPF (UniProt P52597) reads -0.776 | -0.663
ADK (UniProt P55263) reads -0.953 | -0.372
